Experimental data taken from the supplement of paper PMC10849652.
The other results are listed elsewhere or left out. Residues, ends and D or L forms follow the SMILES beside them. *: point of attachment. Cbz = O=C(OCc1ccccc1)*

By UniProt entry, the sequences of proteins in these tests, tags left out. Where a name states a change or a piece, a line headed by the entry shows the natural chain unless it says otherwise.
UniProt P51809, whole entry, looked up: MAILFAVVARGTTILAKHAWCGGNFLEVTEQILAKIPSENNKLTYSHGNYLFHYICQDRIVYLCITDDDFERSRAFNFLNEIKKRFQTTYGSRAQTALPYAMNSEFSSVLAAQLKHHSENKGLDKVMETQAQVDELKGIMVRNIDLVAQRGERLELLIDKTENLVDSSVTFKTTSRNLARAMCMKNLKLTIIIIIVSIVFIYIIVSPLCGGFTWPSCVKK
UniProt Q9UPU5: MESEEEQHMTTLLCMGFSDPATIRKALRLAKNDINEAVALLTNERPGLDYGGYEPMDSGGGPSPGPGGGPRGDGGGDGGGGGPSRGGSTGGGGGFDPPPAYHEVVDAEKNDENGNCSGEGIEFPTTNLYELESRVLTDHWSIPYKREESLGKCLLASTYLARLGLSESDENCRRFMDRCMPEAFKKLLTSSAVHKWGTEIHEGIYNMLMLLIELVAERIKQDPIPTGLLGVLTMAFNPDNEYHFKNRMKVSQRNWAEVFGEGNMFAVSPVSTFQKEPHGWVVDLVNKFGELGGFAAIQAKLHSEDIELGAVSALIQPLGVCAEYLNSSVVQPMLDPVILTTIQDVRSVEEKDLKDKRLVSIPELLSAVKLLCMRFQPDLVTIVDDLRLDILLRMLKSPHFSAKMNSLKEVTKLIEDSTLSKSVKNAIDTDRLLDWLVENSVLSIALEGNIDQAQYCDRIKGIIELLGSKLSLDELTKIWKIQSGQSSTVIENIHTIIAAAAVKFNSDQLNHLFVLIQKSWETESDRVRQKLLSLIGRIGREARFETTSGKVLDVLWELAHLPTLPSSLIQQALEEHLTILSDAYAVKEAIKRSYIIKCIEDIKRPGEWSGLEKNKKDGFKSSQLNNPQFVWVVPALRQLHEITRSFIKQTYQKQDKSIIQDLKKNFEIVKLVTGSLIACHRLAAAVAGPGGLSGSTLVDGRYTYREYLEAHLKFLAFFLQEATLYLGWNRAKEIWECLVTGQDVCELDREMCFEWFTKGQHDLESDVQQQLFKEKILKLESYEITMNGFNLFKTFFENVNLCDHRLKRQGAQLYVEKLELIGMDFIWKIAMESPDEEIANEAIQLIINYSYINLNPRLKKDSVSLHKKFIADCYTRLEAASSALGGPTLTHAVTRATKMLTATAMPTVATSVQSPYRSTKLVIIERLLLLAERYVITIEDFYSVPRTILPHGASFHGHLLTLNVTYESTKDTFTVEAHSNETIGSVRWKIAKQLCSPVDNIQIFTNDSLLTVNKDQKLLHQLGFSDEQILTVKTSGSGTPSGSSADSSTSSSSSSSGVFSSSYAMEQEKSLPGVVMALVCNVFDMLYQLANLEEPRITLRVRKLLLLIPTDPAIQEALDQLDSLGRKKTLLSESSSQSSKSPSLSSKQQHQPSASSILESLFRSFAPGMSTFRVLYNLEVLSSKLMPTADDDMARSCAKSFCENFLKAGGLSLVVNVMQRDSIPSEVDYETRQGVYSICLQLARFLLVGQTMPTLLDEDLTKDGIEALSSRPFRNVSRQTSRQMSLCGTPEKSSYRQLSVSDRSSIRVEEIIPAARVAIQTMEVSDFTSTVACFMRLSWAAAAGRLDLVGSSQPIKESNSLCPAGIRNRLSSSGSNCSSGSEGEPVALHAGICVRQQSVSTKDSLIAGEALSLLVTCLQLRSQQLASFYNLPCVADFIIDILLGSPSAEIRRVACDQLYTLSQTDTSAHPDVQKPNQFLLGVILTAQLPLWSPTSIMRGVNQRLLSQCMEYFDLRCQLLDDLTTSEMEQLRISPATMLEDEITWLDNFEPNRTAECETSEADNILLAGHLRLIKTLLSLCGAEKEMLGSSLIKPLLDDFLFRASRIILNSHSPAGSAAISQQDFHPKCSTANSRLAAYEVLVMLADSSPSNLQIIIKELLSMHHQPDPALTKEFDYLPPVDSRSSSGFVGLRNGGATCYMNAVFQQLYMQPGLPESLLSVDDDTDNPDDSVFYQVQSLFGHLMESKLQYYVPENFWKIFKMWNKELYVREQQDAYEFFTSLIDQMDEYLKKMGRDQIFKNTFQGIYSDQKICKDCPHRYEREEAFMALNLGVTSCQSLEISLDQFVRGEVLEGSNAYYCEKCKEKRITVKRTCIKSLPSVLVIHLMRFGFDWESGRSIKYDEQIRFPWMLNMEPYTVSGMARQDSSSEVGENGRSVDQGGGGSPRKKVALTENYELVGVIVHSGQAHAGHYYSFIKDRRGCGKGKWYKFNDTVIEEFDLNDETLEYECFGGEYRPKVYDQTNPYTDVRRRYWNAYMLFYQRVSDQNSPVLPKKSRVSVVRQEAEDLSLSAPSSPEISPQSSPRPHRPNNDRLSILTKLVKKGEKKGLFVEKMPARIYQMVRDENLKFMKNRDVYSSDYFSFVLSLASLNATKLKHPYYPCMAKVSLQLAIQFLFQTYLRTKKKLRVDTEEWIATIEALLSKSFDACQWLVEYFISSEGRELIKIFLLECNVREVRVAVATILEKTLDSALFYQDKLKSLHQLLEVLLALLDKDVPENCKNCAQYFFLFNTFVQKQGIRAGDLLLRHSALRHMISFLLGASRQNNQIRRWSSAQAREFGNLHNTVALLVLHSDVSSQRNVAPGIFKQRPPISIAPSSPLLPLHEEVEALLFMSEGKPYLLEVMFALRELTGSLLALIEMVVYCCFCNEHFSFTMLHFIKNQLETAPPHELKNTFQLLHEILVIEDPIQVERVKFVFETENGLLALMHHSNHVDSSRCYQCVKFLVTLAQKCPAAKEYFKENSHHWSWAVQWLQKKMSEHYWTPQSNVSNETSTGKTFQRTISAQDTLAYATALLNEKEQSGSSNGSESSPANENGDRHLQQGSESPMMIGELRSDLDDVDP
UniProt Q9NQZ2: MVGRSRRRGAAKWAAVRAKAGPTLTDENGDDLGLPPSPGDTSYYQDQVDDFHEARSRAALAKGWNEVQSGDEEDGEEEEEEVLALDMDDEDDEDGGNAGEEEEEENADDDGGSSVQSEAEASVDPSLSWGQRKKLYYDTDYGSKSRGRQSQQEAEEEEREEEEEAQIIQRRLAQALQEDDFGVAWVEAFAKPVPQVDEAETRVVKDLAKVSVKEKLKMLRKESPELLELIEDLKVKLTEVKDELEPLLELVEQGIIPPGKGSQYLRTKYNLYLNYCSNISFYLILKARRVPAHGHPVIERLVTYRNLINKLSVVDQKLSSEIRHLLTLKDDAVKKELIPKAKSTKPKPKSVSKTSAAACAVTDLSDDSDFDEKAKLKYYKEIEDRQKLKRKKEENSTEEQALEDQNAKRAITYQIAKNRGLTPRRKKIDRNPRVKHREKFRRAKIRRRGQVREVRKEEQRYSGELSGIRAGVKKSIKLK
UniProt Q9BVJ6: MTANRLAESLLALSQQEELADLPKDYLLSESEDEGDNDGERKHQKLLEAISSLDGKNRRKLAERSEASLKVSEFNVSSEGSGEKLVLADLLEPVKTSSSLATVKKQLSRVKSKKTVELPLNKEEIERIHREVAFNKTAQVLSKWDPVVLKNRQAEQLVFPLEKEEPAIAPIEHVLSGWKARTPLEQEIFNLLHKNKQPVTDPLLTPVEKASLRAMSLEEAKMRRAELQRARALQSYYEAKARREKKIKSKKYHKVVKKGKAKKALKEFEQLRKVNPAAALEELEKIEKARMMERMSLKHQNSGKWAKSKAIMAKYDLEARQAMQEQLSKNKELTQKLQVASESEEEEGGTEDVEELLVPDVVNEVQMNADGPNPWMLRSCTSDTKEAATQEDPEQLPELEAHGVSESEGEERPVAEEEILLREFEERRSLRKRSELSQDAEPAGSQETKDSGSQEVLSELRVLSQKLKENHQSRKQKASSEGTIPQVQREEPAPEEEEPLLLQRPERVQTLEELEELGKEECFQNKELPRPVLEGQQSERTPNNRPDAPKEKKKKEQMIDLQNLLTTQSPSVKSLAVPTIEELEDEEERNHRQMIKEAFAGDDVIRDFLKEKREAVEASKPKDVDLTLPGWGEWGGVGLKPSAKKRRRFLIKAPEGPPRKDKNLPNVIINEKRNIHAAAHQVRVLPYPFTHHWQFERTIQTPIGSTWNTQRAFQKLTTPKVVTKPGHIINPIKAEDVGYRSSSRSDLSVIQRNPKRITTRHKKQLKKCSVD
UniProt P13051, whole entry, looked up: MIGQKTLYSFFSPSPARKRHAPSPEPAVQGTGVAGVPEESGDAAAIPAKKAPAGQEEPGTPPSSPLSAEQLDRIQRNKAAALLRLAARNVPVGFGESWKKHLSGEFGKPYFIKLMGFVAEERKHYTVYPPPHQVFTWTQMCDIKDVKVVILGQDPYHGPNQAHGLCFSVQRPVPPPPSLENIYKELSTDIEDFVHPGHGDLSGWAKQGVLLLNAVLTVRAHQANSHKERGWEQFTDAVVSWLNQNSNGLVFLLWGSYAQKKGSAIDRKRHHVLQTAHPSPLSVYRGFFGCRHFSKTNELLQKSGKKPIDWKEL
UniProt Q9Y4E8: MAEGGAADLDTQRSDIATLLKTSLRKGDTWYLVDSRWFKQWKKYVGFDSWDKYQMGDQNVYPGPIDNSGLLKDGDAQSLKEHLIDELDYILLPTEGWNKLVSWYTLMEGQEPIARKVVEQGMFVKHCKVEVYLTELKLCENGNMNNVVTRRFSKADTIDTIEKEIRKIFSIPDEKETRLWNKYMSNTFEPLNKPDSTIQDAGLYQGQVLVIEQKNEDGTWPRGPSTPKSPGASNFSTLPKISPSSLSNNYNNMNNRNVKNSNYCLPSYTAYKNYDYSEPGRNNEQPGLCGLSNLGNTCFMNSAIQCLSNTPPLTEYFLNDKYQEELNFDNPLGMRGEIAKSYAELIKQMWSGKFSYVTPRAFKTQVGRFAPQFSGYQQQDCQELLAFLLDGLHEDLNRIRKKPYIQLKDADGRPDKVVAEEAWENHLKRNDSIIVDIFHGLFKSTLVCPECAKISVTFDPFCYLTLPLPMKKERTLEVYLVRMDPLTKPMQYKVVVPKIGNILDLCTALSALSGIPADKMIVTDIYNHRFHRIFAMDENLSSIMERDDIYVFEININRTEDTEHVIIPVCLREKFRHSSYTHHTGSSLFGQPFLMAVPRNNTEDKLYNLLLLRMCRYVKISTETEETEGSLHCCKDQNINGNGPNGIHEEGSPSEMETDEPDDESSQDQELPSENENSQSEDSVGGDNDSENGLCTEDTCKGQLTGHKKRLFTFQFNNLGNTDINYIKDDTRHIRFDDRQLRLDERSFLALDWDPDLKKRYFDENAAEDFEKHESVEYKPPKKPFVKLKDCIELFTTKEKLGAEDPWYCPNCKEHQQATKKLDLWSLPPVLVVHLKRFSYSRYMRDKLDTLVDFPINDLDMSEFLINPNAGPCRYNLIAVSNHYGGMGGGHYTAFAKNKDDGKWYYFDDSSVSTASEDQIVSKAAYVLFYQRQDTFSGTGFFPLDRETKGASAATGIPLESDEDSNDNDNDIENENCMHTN
UniProt Q969X6: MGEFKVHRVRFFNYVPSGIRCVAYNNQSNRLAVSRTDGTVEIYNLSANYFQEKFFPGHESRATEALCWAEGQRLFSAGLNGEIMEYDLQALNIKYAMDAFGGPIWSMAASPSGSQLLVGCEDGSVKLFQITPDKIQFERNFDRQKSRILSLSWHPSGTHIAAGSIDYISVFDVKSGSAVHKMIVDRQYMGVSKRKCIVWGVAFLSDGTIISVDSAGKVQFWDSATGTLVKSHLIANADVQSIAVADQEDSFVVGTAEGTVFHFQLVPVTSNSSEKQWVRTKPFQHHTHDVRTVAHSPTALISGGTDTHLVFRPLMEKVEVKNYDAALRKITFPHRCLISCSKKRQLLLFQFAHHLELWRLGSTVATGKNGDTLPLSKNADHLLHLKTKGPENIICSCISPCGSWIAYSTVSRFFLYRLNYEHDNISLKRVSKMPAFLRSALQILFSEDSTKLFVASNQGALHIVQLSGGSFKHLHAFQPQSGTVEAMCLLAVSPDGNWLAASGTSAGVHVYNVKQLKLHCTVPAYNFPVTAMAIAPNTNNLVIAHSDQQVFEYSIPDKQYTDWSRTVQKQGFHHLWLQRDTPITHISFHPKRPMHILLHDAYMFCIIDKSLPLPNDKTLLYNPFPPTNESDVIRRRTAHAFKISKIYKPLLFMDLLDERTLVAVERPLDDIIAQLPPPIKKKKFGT

Key:
Test in all cases: log2 fold change, soluble protein after heating vs DMSO (PISA); higher = thermal stabilisation; K562 cells, 10 uM, 30 min; active = over 0.2 and 3.5 SD of the protein, either way, in both replicates (recomputed)
erlotinib = compound: C#Cc1cccc(Nc2ncnc3cc(OCCOC)c(OCCOC)cc23)c1 [erlotinib]
Method in brief: (§1)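 For each measurement, 10 μM compound was applied for 30 min to K562 cells at 2×10^6 cells/mL. Aliquots were heated for 3 min across 48°C-58°C, pooled, and extracted in PBS with 0.5% NP-40 at 4°C; the supernatant after 21,000xg for 90 min was soluble protein. This was quantified by TMTpro 16plex LC-MS/MS with channel sums equalised, and thermal stability was reported relative to control samples from duplicates, on a log2 fold-change scale.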

[1] = compound: C/C(=N\NC(=O)C1=CC(=CC=C1)S(=O)(=O)N2CCOCC2)/C3=C(C=CC(=C3)Cl)O
Method in brief: as §1

[2] = compound: C1=CC(=C(C=C1Cl)C2=NC3=NC=CN=C3C(=N2)NC4=CC=NC=C4)F
Method in brief: as §1

[3] = compound: C1=CC(=CC=C1C2=NC3=C(N2)C=C(C=C3)C(=O)N)OC4=CC=C(C=C4)Cl
Method in brief: as §1

[4] = compound: C1=CC2=C(C=CC(=C2)/C=C\3/C(=O)NC(=NCC4=CC=CS4)S3)N=C1
Method in brief: as §1

[5] = compound: C1=CC=C(C=C1)C2=NC(=C(N2)C3=CC=NC=C3)C4=CC(=C(C=C4)Cl)O
Method in brief: as §1

[6] = compound: C1=CC=C2C(=C1)C3=NNC4=CC=CC(=C43)C2=O
Method in brief: as §1

[7] = compound: C1CCN(C1)C(=O)NC2=CC=CC(=C2)NC3=NC=C(C(=N3)NCCC4=CN=CN4)Br
Method in brief: as §1

[8] = compound: C1CN(CCC1(CC2=CC=C(C=C2)Cl)N)C3=NC=NC4=C3C=CN4
Method in brief: as §1

IRAK-1-4 Inhibitor I = compound: C1COCCN1CCN2C3=CC=CC=C3N=C2NC(=O)C4=CC(=CC=C4)[N+](=O)[O-] [IRAK-1-4 Inhibitor I]
Method in brief: as §1

[9] = compound: CC(=O)c1cnc2ccc(-c3cc(Cl)c(O)c(Cl)c3)nc2c1N[C@H]1CC[C@H](CN(C)C)CC1
Method in brief: as §1

ralimetinib = compound: CC(C)(C)Cn1c(N)nc2ccc(-c3[nH]c(C(C)(C)C)nc3-c3ccc(F)cc3)nc21 [ralimetinib]
Method in brief: as §1

[10] = compound: CC(C)(O)CC(=O)NCCn1ccc2ncnc(Nc3ccc(Oc4cccc(C(F)(F)F)c4)c(Cl)c3)c21
Method in brief: as §1

[11] = compound: CC(C)C1=C2N=C(C=C(N2N=C1)NCC3=CC=CC=C3)NCCCCCCN
Method in brief: as §1

[12] = compound: CC(C)C[C@@H](C=O)NC(=O)[C@H](CC(C)C)NC(=O)[C@H](CC(C)C)NC(=O)OCc1ccccc1
Method in brief: as §1

pinometostat = compound: CC(C)N(C[C@H]1O[C@@H](n2cnc3c(N)ncnc32)[C@H](O)[C@@H]1O)[C@H]1C[C@@H](CCc2nc3cc(C(C)(C)C)ccc3[nH]2)C1 [pinometostat]
Method in brief: as §1

[13] = compound: CC1=C(C(CC(=O)N1)C2=CC=C(C=C2)C(F)(F)F)C(=O)NC3=C(C=C4C(=C3)C=NN4)F
Method in brief: as §1

[14] = compound: CC1=C(C2=C(C=C1)C(=O)C3=CC=CC=C3N2CCCN)C
Method in brief: as §1

[15] = compound: C1=CC2=NC=CN=C2C=C1/C=C/3\C(=O)NC(=O)S3
Method in brief: as §1

ibrutinib = compound: C=CC(=O)N1CCC[C@@H](n2nc(-c3ccc(Oc4ccccc4)cc3)c3c(N)ncnc32)C1 [ibrutinib]
Method in brief: as §1

| Target | log2 fold change (erlotinib) | log2 fold change [1] | log2 fold change [2] | log2 fold change [3] | log2 fold change [4] | log2 fold change [5] | log2 fold change [6] | log2 fold change [7] | log2 fold change [8] | log2 fold change (IRAK-1-4 Inhibitor I) | log2 fold change [9] | log2 fold change (ralimetinib) | log2 fold change [10] | log2 fold change [11] | log2 fold change [12] | log2 fold change (pinometostat) | log2 fold change [13] | log2 fold change [14] | log2 fold change [15] | log2 fold change (ibrutinib) |
| --- | --- | --- | --- | --- | --- | --- | --- | --- | --- | --- | --- | --- | --- | --- | --- | --- | --- | --- | --- | --- |
| USP32 (UniProt Q8NFA0) | inactive: 0.389 | inactive: -0.181 | inactive: 0.102 | inactive: -0.232 | inactive: -0.182 | inactive: 0 | inactive: 0.06 | inactive: 0.014 | inactive: -0.08 | inactive: -0.13 | inactive: -0.057 | inactive: -0.06 | inactive: -0.085 | inactive: 0.201 | inactive: 0.129 | inactive: 0.017 | inactive: -0.005 | inactive: 0.04 |  |  |
| VAMP7 (UniProt P51809) | inactive: -0.02 | inactive: 0.003 | inactive: 0.077 | inactive: 0.005 | inactive: 0.016 | inactive: 0.065 | inactive: -0.001 | inactive: 0.001 | inactive: 0.03 | inactive: 0.018 | inactive: -0.041 | inactive: -0.022 | inactive: -0.006 | inactive: -0.169 | inactive: -0.001 | inactive: -0.027 |  | inactive: 0.025 | inactive: 0.007 | inactive: -0.048 |
| USP24 (UniProt Q9UPU5) | inactive: 0.126 | inactive: -0.147 | inactive: 0.101 | inactive: -0.113 | inactive: 0.092 | inactive: 0.141 | inactive: 0.094 | inactive: 0.181 | inactive: 0.297 | inactive: 0.052 | inactive: 0.156 | inactive: -0.077 | inactive: -0.093 | inactive: 0.004 | inactive: -0.043 | inactive: -0.026 |  | inactive: 0.017 | inactive: 0.148 | inactive: 0.086 |
| USP6NL isoform 2 (UniProt Q92738) | inactive: 0.156 | inactive: -0.1 | inactive: -0.016 | inactive: 0.044 | inactive: -0.034 | inactive: -0.032 | inactive: 0.066 | inactive: -0.11 | inactive: 0.084 | inactive: -0.464 | inactive: -0.429 | inactive: 0.006 | inactive: -0.105 | inactive: -0.122 | inactive: 0.064 | inactive: -0.064 | inactive: 0.118 | inactive: 0.163 |  |  |
| UTP3 (UniProt Q9NQZ2) | inactive: -0.098 | inactive: -0.076 | inactive: -0.748 | inactive: 0.063 | inactive: -0.068 | inactive: -0.255 | inactive: -0.004 | inactive: 0.006 | inactive: -0.203 | inactive: -0.053 | inactive: 0.031 | inactive: 0.021 | inactive: 0.062 | inactive: -0.062 | inactive: 0.253 | inactive: 0.159 |  | inactive: -0.571 | inactive: 0 | inactive: 0.072 |
| UHRF1BP1L (UniProt A0JNW5) | inactive: -0.024 | inactive: 0.017 | inactive: 0.016 | inactive: 0.027 | inactive: 0.042 | inactive: -0.009 | inactive: 0.025 | inactive: -0.007 | inactive: 0.061 | inactive: 0.018 | inactive: -0.076 | inactive: -0.009 | inactive: 0.193 | active: 0.242 | inactive: -0.004 | inactive: 0.03 |  | inactive: -0.019 | inactive: 0.01 | inactive: -0.051 |
| USP48 isoform 8 (UniProt Q86UV5) | inactive: 0.114 | inactive: 0.186 | inactive: 0.14 | inactive: -0.033 | inactive: 0.028 | inactive: 0.049 | inactive: -0.049 | inactive: -0.103 | inactive: -0.029 | inactive: -0.09 | inactive: -0.014 | inactive: 0.046 | inactive: -0.207 | inactive: -0.278 | inactive: 0.052 | inactive: 0.008 |  | inactive: -0.101 | inactive: -0.013 | inactive: -0.071 |
| UTP14A (UniProt Q9BVJ6) | inactive: -0.142 | inactive: -0.15 | inactive: -0.301 | inactive: 0.06 | inactive: -0.075 | inactive: -0.06 | inactive: -0.045 | inactive: 0.006 | inactive: -0.155 | inactive: -0.13 | inactive: 0.088 | inactive: 0.11 | inactive: 0.007 | inactive: -0.113 | inactive: 0.154 | inactive: 0.262 |  | active: -0.708 | inactive: -0.005 | inactive: -0.026 |
| UNG (UniProt P13051) | inactive: 0.012 | inactive: 0.082 | inactive: -0.039 | inactive: 0.036 | inactive: -0.116 |  | inactive: -0.204 | inactive: -0.065 | inactive: -0.006 |  | inactive: -0.154 |  | inactive: 0.035 | inactive: -0.026 |  |  |  | inactive: -0.048 | inactive: 0.033 | inactive: 0.073 |
| USP15 (UniProt Q9Y4E8) | inactive: 0.026 | inactive: 0.078 | inactive: 0.08 | inactive: -0.015 | inactive: 0.027 | inactive: 0 | inactive: 0.012 | inactive: -0.011 | inactive: -0.031 | inactive: -0.028 | inactive: 0.008 | inactive: -0.004 | inactive: -0.067 | inactive: -0.154 | inactive: 0.012 | inactive: 0.012 |  | inactive: -0.019 | inactive: 0.031 | inactive: -0.034 |
| UTP4 (UniProt Q969X6) | inactive: -0.05 | inactive: -0.07 | inactive: -0.009 | inactive: 0.005 | inactive: -0.082 | inactive: -0.022 | inactive: 0.012 | inactive: 0 | inactive: 0.06 | inactive: 0.003 | inactive: 0.02 | inactive: -0.07 | inactive: 0.045 | active: 0.233 | inactive: -0.014 | inactive: -0.017 |  | active: 0.343 | inactive: 0.026 | inactive: 0.002 |

Quoted at random: 2 entries already listed, in no set order.

| Target | log2 fold change (erlotinib) | log2 fold change [1] | log2 fold change [2] | log2 fold change [3] | log2 fold change [4] | log2 fold change [5] | log2 fold change [6] | log2 fold change [7] | log2 fold change [8] | log2 fold change (IRAK-1-4 Inhibitor I) | log2 fold change [9] | log2 fold change (ralimetinib) | log2 fold change [10] | log2 fold change [11] | log2 fold change [12] | log2 fold change (pinometostat) | log2 fold change [13] | log2 fold change [14] | log2 fold change [15] | log2 fold change (ibrutinib) |
| --- | --- | --- | --- | --- | --- | --- | --- | --- | --- | --- | --- | --- | --- | --- | --- | --- | --- | --- | --- | --- |
| UHRF1BP1L (UniProt A0JNW5) | inactive: -0.024 | inactive: 0.017 | inactive: 0.016 | inactive: 0.027 | inactive: 0.042 | inactive: -0.009 | inactive: 0.025 | inactive: -0.007 | inactive: 0.061 | inactive: 0.018 | inactive: -0.076 | inactive: -0.009 | inactive: 0.193 | active: 0.242 | inactive: -0.004 | inactive: 0.03 |  | inactive: -0.019 | inactive: 0.01 | inactive: -0.051 |
| UTP4 (UniProt Q969X6) | inactive: -0.05 | inactive: -0.07 | inactive: -0.009 | inactive: 0.005 | inactive: -0.082 | inactive: -0.022 | inactive: 0.012 | inactive: 0 | inactive: 0.06 | inactive: 0.003 | inactive: 0.02 | inactive: -0.07 | inactive: 0.045 | active: 0.233 | inactive: -0.014 | inactive: -0.017 |  | active: 0.343 | inactive: 0.026 | inactive: 0.002 |
